These are yes or no findings as the source states them, for the method shown. Some results given as binding are weak or reduced against the parent protein; the word gives no strength.
T1: GRS (Glycyl-tRNA synthetase), purified recombinant antigen (human) (UniProt P41250)
T1 sequence (looked up): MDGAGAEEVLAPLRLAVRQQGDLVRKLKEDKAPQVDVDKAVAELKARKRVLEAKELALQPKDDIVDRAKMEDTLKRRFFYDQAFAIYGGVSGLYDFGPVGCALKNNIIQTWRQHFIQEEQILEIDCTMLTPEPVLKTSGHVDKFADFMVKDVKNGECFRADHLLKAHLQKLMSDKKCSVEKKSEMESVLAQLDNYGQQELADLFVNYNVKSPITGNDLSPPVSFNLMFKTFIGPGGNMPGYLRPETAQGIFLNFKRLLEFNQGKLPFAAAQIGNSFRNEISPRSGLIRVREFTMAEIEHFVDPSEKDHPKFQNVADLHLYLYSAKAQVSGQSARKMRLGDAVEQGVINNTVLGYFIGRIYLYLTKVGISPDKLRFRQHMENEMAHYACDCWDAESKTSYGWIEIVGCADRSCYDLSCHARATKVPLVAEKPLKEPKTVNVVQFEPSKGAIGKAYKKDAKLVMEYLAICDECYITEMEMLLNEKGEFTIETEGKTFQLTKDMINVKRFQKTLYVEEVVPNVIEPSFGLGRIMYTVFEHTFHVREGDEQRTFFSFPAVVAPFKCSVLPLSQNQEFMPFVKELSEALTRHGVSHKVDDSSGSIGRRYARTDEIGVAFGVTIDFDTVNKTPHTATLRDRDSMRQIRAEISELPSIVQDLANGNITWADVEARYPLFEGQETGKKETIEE

T2: GRS expressed natively in human cells (HeLa cell lysate) (human) (UniProt P41250)
T2 sequence (looked up): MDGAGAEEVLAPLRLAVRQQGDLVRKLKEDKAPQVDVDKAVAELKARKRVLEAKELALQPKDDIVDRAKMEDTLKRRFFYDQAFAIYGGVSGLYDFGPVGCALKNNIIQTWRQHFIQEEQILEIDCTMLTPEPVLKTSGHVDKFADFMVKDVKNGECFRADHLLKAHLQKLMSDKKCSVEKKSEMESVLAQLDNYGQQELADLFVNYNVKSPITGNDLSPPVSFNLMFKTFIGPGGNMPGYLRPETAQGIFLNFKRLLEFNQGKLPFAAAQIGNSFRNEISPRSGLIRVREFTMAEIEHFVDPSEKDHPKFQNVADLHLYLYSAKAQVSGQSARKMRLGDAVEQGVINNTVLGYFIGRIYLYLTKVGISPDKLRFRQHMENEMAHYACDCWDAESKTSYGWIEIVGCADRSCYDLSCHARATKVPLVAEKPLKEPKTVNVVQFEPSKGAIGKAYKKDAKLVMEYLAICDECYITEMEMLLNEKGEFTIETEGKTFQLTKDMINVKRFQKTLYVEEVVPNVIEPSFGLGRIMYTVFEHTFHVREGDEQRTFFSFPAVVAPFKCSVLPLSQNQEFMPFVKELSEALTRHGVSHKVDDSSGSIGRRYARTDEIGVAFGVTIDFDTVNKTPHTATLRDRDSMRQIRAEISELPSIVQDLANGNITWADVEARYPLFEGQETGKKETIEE


Key:
[1] = target: T1, GRS (Glycyl-tRNA synthetase), purified recombinant antigen (human); assay: phage display selection on GRS, western blot confirmation, sequencing
[2] = target: T2, GRS expressed natively in human cells (HeLa cell lysate) (human); assay: western blot on 50 ug HeLa cell lysate, periplasmic scFv, anti-HA-HRP detection
[3] = target: T2, GRS expressed natively in human cells (HeLa cell lysate) (human); assay: western blot
[4] = target: T1, GRS (Glycyl-tRNA synthetase), purified recombinant antigen (human); assay: sandwich ELISA, scFv coated at 100-400 ng/well as capture antibody, rabbit polyclonal detection antibody
[5] = target: T1, GRS (Glycyl-tRNA synthetase), purified recombinant antigen (human); assay: Luminex multiplex bead assay, GRS coupled to beads
[6] = target: T1, GRS (Glycyl-tRNA synthetase), purified recombinant antigen (human); assay: sandwich ELISA, scFv coated as capture antibody, rabbit polyclonal detection antibody
[7] = target: T1, GRS (Glycyl-tRNA synthetase), purified recombinant antigen (human); assay: SPR (ProteOn XPR36), GRS amine-coupled to GLC chip, purified scFv as analyte

Row | binding [1] | binding [2] | binding [3] | binding [4] | binding [5] | binding [6] | binding [7] | Binder
1 | binds | binds | binds | binds | binds | binds | binds | anti-GRS scFv, SEQ ID NO 13 (antibody i) (scFv) scFv: EVQLLESGGGLVQPGGSLRLSCAASGFTFSDYDMSWVRQAPGKGLEWVSAISPDDGSKYYADSVKGRFTISRDNSKNTLYLQMNSLRAEDTAVYYCARTTWLFDYWGQGTLVTVSSGGGGSGGGGSGGGGSQSVLTQPPSASGTPGQRVTISCTGSSSNIGNNYVNWYQQLPGTAPKLLIYADSHRPSGVPDRFSGSKSGTSASLAISGLRSEDEADYYCGAWDSSLSGYVFGGGTKLTVL
2 | binds | – | – | binds | binds | binds | binds | anti-GRS scFv, SEQ ID NO 27 (antibody ii) (scFv) scFv: EVQLLESGGGLVQPGGSLRLSCAASGFTFSGYDMSWVRQAPGKGLEWVSAIYSDSGSTYYADSVKGRFTISRDNSKNTLYLQMNSLRAEDTAVYYCARNTALFDYWGQGTLVTVSSGGGGSGGGGSGGGGSQSVLTQPPSASGTPGQRVTISCSGSSSNIGSNYVTWYQQLPGTAPKLLIYANNHRPSGVPDRFSGSKSGTSASLAISGLRSEDEADYYCGAWDASLSGYVFGGGTKLTVL
3 | binds | – | – | binds | binds | binds | binds | anti-GRS scFv, SEQ ID NO 41 (antibody iii) (scFv) scFv: EVQLLESGGGLVQPGGSLRLSCAASGFTFSNYDMSWVRQAPGKGLEWVSWIYSNGSSTYYADSVKGRFTISRDNSKNTLYLQMNSLRAEDTAVYYCARITCMFDYWGQGTLVTVSSGGGGSGGGGSGGGGSQSVLTQPPSASGTPGQRVTISCSGSSSNIGSNYVTWYQQLPGTAPKLLIYADSHRPSGVPDRFSGSKSGTSASLAISGLRSEDEADYYCGSWDYSLNGYVFGGGTKLTVL

— patent KR20150077749A
